# According to PubChem BioAssay AID493014 (National Center for Advancing Translational Sciences (NCATS), 2011):
# Hit rate of the full screen: of about 340,000 compounds, about 170 (0.05%) were called active. Inconclusive means that the source gave no clear call. Such entries were picked first, then a sample of the others. Calls come from the whole dose curve; as a rule, active = well fitted inhibition curve with a large enough effect in the signal ratio, with a control signal flat (not every such curve was filed as active); inconclusive = small, poorly fitted or top-dose-only effect, or effect the other way, or a change in a side signal; inactive = flat fitted curve, though single readings scatter; the % refers to the signal ratio. Potencies of inconclusive entries are doubtful fits and often do not repeat.
# Experiment: qHTS Assay to Find Inhibitors of Chronic Active B-Cell Receptor Signaling;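 for activity change, negative = inhibition: plate controls were basal doxycycline-induced cells for no effect and cells given 10 µM MG132 for full effect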
# Conditions: ABC-DLBCL IkBa-CBG/CBR reporter, luminescence ratio (green luciferase fused to IkBa over red control in TMD8 lymphoma cells), 4 h; activity change, negative = inhibition: at 46.1 µM (top of the series)
# How it was run: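 Compounds up to 46 uM were incubated four hours with TMD8 cells whose green CBG68 luciferase is fused to IkappaBalpha; red CBR luminescence normalised the signal, and concentration-effect curves were fitted to fusion, red and ratio data.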
# Potency is the fitted concentration of half-maximal effect.
Compound,"activity change, negative = inhibition",Potency
C=CCn1c(SCC(=O)N2CC(=O)Nc3ccccc32)nc2scc(-c3cccs3)c2c1=O,inconclusive: 18.3%,–
O=C(Nc1ccc(S(=O)(=O)N2CCN(c3ccccc3)CC2)cc1)c1cccs1,inconclusive: -4.15%,–
CCOC(=O)c1sc(=S)sc1SCc1cccc(C(F)(F)F)c1,inconclusive: 11.2%,–
O=C(NCc1ccco1)c1ccccc1NS(=O)(=O)c1ccc(Br)s1,inactive: 7.04%,–
COc1ccc(NC(=O)N(C)C[C@@H]2Oc3ccc(NC(=O)NC(C)C)cc3CC(=O)N([C@H](C)CO)C[C@@H]2C)cc1,inconclusive: -0.444%,–
Cc1c2ccccc2cc(Cc2ccccc2)[n+]1C,inactive: -0.0611%,–
COc1ccc(Cl)cc1NC(=O)Nc1ccccc1C(N)=O,inconclusive: 15.7%,–
O=[N+]([O-])c1ccc(Nc2ccc(F)cc2)nc1,inconclusive: 6.24%,–
COc1ccc(O)c(/C=N/NC(=O)CCC(=O)Nc2ccc(C)cc2)c1,inactive: -1.6%,–
COc1ccc(C(=O)N/N=C/c2ccc(OC)c(CN3CCc4cc(OC)c(OC)cc4C3C)c2)cc1 (stereo not given),inactive: -20.2%,–
CN(Cc1ccccc1)C(=O)C1CCN(Cc2cc3ccccc3n2Cc2ccccc2)CC1,inconclusive: -10.3%,–
CC(C)(C)N1CC(C(=O)Nc2cccc(Cl)c2Cl)CC1=O (stereo not given),inconclusive: 2.32%,–
Cc1ccc(C(=O)Nc2cccc(N3C(=O)C4CCC(C)CC4C3=O)c2)cc1 (stereo not given),inconclusive: -1.53%,–
O=C1OCC/C1=C\c1ccc2c(c1)OCO2,inconclusive: -4.47%,–
O=C(Nc1cccc(C(=O)N2CCCCC2)c1)c1ccc(Cl)cc1,inconclusive: 1.78%,–
CN(C)c1ccc(N=C/C=C2/N(C)c3ccccc3C2(C)C)cc1,–,"inconclusive: 2.31 µM [falling, partial curve, poor fit]"
O=C(Nc1cccc2[nH]ncc12)c1ccc(F)cc1,–,"inconclusive: 11.2 µM [falling, partial curve]"
O=C1C(Cc2ccc(Br)cc2)SC(=Nc2ccccc2)N1c1ccccc1 (stereo not given),inconclusive: 3%,–
O=C(/C=C/c1cccnc1)c1ccccc1O,inactive: -4.45%,–
CCCn1c(CC)nc([N+](=O)[O-])c1Sc1ccc(F)cc1,inactive: -5.86%,–
O=C(COc1ccc(S(=O)(=O)Nc2ccccc2)cc1)NCc1cccnc1,–,"inconclusive: 18.4 µM [rising, partial curve, poor fit]"
CCOc1ccc(C2C(C(=O)c3cccs3)=C(O)C(=O)N2Cc2cccnc2)cc1OC (stereo not given),inconclusive: 6.89%,–
CCCCCCCc1n[nH]c(=S)n1Cc1ccccc1,inactive: 10.9%,–
CN(C(=O)CSc1nc2ccc(Cl)cc2[nH]1)C1CCS(=O)(=O)C1 (stereo not given),inactive: 6.04%,–
Cc1ccc(S(=O)(=O)N(CC(=O)NCc2ccco2)c2ccccc2C)cc1,inconclusive: -1.08%,–
Cc1ccc(-n2c(=O)c3sccc3n(CC(=O)NC3CCCCC3)c2=O)cc1,–,"inconclusive: 0.282 µM [falling, full curve, poor fit]"
CCC(C(=O)O)n1nnc(-c2ccc(-c3ccc(OC)cc3)cc2)n1 (stereo not given),inconclusive: 19.2%,–
Cn1cccc1C(=O)Nc1nccs1,inconclusive: 11.2%,–

# An excerpt from above in order of molecular weight, rising.
Compound,"activity change, negative = inhibition",Potency
O=C(Nc1cccc2[nH]ncc12)c1ccc(F)cc1,–,"inconclusive: 11.2 µM [falling, partial curve]"
O=C1C(Cc2ccc(Br)cc2)SC(=Nc2ccccc2)N1c1ccccc1 (stereo not given),inconclusive: 3%,–
COc1ccc(C(=O)N/N=C/c2ccc(OC)c(CN3CCc4cc(OC)c(OC)cc4C3C)c2)cc1 (stereo not given),inactive: -20.2%,–

# Additional entries follow:

Compound,"activity change, negative = inhibition",Potency
CC(=O)NS(=O)(=O)c1ccc(NC(=O)c2ccc(NC(=O)c3cccs3)cc2)cc1,inactive: -0.025%,–
CC(=O)c1ccc(NC(=O)CSc2ccc(-c3sc(C)nc3C)nn2)cc1,inactive: -13.4%,–
CCOc1ccc(C(C)=O)cc1Cn1nc(C(=O)O)c2ccccc2c1=O,inconclusive: -1.44%,–
COC(=O)c1ccc(-c2cc3onc(-c4ccccc4)c3c(=O)n2C)cc1,inconclusive: -1.25%,–
COc1ccc(C=C(C#N)C#N)c(CSc2ccccn2)c1,inconclusive: -2.61%,–
COc1ccc(Cl)cc1NC(=O)CN(C)C(=O)C12CC3CC(CC(Cl)(C3)C1)C2,inconclusive: -9.04%,–
COc1ccc2c(c1)CC1c3c(cc4c(c3-2)OCO4)CC[N+]1(C)[O-] (stereo not given),inactive: 4.95%,–
CCCCSc1nc2sc3c(c2c(=O)n1-c1ccccc1)CCN(C)C3,inactive: 1.77%,–
O=C(/C=C/c1ccc(-c2ccccc2[N+](=O)[O-])o1)c1ccc(Br)cc1,inconclusive: -7.84%,–
COc1cc(C(=O)NC2CC(C)(C)NC(C)(C)C2)cc(OC)c1OC,inconclusive: 8.69%,–
CCO/C=C1/C(=O)N(C)C(=O)c2cc(OC)ccc21,–,"inconclusive: 29.1 µM [rising, single point]"
COc1cc2c(C(=O)N3CCN(c4ccccc4)CC3)c(C)oc2cc1Br,inactive: 1.7%,–
O=C(CNC(=O)c1ccc(-c2ccccc2)cc1)OCc1c(F)cccc1Cl,inconclusive: 11.4%,–
CC(C)c1cc(N2CCN(C(=O)c3ccco3)CC2)n2c(nc3ccccc32)c1C#N,inconclusive: 11.8%,–
COc1ccccc1NS(=O)(=O)c1ccc(S(=O)(=O)N2CCOCC2)cc1,inconclusive: -14.6%,–
NCC1CC2c3ccccc3C1c1ccccc12 (stereo not given),inconclusive: -4.01%,–
CC(/C=C/c1ccco1)=N/NC(=O)Cc1cccs1,inconclusive: -3.21%,–
Cc1ccc(C)c(NC(=S)N(Cc2ccco2)C(C)c2cccs2)c1 (stereo not given),inactive: -12%,–
COc1ccc(N2CCN(c3nc4c(c(=O)[nH]c(=O)n4C)n3Cc3cccc(C)c3)CC2)cc1,inconclusive: 3.41%,–
Cc1ccc(N(C(=O)Cc2cccs2)C2C=CS(=O)(=O)C2)cc1Cl (stereo not given),inconclusive: -4.82%,–
CC(C)CN(C(=O)CCNC(=O)c1ccc(Cl)cc1)C1CCS(=O)(=O)C1 (stereo not given),inconclusive: 9.63%,–
CCOc1cc(/C=C\c2[nH]c(=O)[nH]c(=O)c2[N+](=O)[O-])ccc1OC(C)CC (stereo not given),inconclusive: -11.8%,–
CCOC(=O)c1cnn(-c2ccccn2)c1N,inconclusive: -21.4%,–
CC(NC(=O)c1ccc([N+](=O)[O-])o1)C12CC3CC(CC(C3)C1)C2 (stereo not given),inconclusive: -26.9%,–
Cc1noc(C)c1CSc1nc2ccccc2c(=O)n1-c1ccc(Cl)cc1,inconclusive: -26.6%,–
COc1cc2cc(C[C@H](C)O)oc(=O)c2cc1OC,inconclusive: -1.72%,–
COc1ccc(Cc2nc(C(=O)Nc3ccc(F)cc3)cs2)cc1,inconclusive: -3.94%,–
